Assay results: paper PMC5705118
These are yes or no findings as the source states them, for the method shown. In cells and extracts the contact can be indirect. Some entries that bind do so weakly or less than the wild type.

Sequences of proteins named here, by UniProt entry; tags and fusion partners are left off. Residues count along the entry.
UniProt Q99IB8, residues 1716-1976: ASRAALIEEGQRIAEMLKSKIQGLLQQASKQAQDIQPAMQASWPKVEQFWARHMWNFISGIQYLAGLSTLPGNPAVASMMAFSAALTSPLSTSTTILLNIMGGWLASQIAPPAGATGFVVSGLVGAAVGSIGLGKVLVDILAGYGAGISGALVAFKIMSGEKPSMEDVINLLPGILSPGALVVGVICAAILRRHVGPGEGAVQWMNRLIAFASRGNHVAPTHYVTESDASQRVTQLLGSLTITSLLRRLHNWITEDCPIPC

Target: HCV NS4B protein, genotype 2a (SGR-Feo-JFH-1 subgenomic replicon) (hepatitis C virus genotype 2a (JFH-1)) (UniProt Q99IB8)
Experiment: co-IP; lysate (Cellytic MT) of Huh7.5/SGR-Feo-JFH-1 or Huh7.5 S52/SG-Feo cells; NS4B precipitated with the antibody MA17616 overnight at 4°C and Protein A agarose; washed 5x with 25 mM Tris, 150 mM NaCl; western blot for HSPB8; control without the NS4B antibody

B1: HSPB8 (Heat Shock Protein Family B Member 8) (protein, UniProt Q9UJY1 1-196)
chain: MADGQMPFSCHYPSRLRRDPFRDSPLSSRLLDDGFGMDPFPDDLTASWPDWALPRLSSAWPGTLRSGMVPRGPTATARFGVPAEGRTPPPFPGEPWKVCVNVHSFKPEELMVKTKDGYVEVSGKHEEKQQEGGIVSKNFTKKIQLPAEVDPVTVFASLSPEGLLIIEAPQVPPYSTFGESSFNNELPQDSQEVTCT
- binding: binds
